Reference: patent US20030228667A1
These are yes or no findings as the source states them, for the method shown. Some entries that bind do so weakly or less than the wild type.

Protein sequences, listed by entry. Tags and fused reporters are not part of them. Lines headed by an entry give the natural chain unless they say otherwise; changes in a name come on top.
UniProt O88522: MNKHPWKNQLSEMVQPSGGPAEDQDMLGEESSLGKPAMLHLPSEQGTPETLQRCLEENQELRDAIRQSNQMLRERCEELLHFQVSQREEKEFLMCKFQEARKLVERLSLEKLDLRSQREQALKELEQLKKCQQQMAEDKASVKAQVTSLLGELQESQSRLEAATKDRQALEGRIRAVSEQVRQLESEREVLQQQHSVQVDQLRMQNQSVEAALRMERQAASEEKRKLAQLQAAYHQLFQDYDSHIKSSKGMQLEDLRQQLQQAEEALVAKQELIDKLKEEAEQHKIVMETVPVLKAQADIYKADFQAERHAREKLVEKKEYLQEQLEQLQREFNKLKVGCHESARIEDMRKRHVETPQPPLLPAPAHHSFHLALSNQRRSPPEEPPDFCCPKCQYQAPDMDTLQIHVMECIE

What was measured:
[1] = molecular target: NEMO (NF-κB Essential MOdulator), murine, untagged, in vitro translated in wheat germ extract (murine) (UniProt O88522); assay: glutaraldehyde crosslinking of in vitro translated NEMO
[2] = molecular target: NEMO (NF-κB Essential MOdulator), murine, untagged, in vitro translated in wheat germ extract (murine) (UniProt O88522); assay: glutaraldehyde crosslinking of in vitro translated NEMO, immunoprecipitation with NEMO antiserum, SDS-PAGE
[3] = molecular target: NEMO (NF-κB Essential MOdulator), murine, untagged, in vitro translated in wheat germ extract (murine) (UniProt O88522); assay: glutaraldehyde crosslinking of in vitro translated NEMO (wheat germ extract)

Measured: binding

NEMO (NF-κB Essential MOdulator), murine, untagged, in vitro translated in wheat germ extract (from UniProt O88522 3-411)
binds: all assays above
